# Reference: PubChem BioAssay AID743255 (National Center for Advancing Translational Sciences (NCATS), 2014)
# Chains of the proteins cited; added tags and fusions are not shown. Lines headed by an entry give the natural chain unless they say otherwise; changes in a name come on top.
# UniProt O94782: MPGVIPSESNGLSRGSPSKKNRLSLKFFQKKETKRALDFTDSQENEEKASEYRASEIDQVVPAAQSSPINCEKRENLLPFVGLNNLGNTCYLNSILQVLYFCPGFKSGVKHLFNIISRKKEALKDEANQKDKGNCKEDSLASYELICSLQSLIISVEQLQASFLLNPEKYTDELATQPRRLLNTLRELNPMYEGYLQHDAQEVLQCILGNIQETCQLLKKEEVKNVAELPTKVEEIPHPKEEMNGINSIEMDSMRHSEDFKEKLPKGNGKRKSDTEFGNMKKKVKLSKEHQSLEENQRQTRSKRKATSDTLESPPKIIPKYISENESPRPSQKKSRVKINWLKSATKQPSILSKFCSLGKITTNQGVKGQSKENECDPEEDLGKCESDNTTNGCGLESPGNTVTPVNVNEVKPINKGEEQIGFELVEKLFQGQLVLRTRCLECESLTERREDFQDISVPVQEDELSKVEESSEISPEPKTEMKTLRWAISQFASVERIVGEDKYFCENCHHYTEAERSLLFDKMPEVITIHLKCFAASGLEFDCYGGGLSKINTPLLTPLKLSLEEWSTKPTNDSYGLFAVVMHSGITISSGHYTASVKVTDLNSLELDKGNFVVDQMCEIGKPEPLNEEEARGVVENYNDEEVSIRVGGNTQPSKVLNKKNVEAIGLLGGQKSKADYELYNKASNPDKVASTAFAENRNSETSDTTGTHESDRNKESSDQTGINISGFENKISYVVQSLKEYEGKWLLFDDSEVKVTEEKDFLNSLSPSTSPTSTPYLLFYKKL
# The campaign covered roughly 390,000 compounds. About 910 (0.23%) were called active. Inconclusive results, whose numbers are uncertain, are shown with a selection of clear calls. Calls follow the shape of the dose curve; as a rule, active = well fitted inhibition curve with a large enough effect; inconclusive = small, poorly fitted or top-dose-only effect; inactive = no such curve, though single readings can be large or run the other way. Where the call is inconclusive, the potency comes from a doubtful curve fit.
# Target: Ubiquitin carboxyl-terminal hydrolase 1 (Homo sapiens) (UniProt O94782)
# Assay: Inhibitors of USP1/UAF1: Primary Screen; also: nearly all actives have a fitted effect of over 60% in size
# Settings: recombinant USP1/UAF1, Ub-Rhodamine cleavage fluorescence; activity change, negative = inhibition: at 57.1 µM (top of the series)
# Procedure, shortened: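 1 nM enzyme complex + cpd, 15 min RT; start with Ub-Rho 150nM final; kinetic fluorescence ex 480/em 540, 6 reads q60 s. Buffer 50mM HEPES pH 7.8, 0.5mM EDTA, 0.1 mg/ml BSA, 1mM TCEP, 0.01% Tween-20.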
# % is scaled to controls: 0 for no effect and ±100 for the full control effect; potency is read from the fitted curve at half-maximal effect.
Compound,"activity change, negative = inhibition",Potency
CCCc1nccn1S(=O)(=O)c1cc(Br)ccc1OC,inactive: -14.2%,–
CCC(CO)Oc1cc(NC(=O)c2cccc3ccccc23)c2ncn(C(C)C)c2c1 (centres undefined),–,"inconclusive: 35.5 µM [inhibitor, single point]"
COc1ccccc1NC(=O)CSC1=Nc2ccccc2N=C(c2ccc(F)cc2)C1,–,"inconclusive: 70.8 µM [inhibitor, partial curve, poor fit]"
CCn1cc(C(=O)OCC(=O)N2C(C)CCCC2C)c(=O)c2ccc(C)nc21 (centres undefined),inactive: -6.86%,–
CC[n+]1ccccc1/C=C1\Sc2ccc(C)cc2N1C,inactive: -17.1%,–
CN(C)c1ccc(C(=O)OCC(=O)Nc2ccc(S(N)(=O)=O)cc2)cc1,–,"inconclusive: 28.2 µM [inhibitor, partial curve]"
COc1ccc(C=CC(C)=NNC(=O)c2ccncc2)cc1,–,"inconclusive: 7.08 µM [inhibitor, full curve]"
Cc1ccc(-c2nn(CC(=O)Nc3cccc(C(F)(F)F)c3)c(=O)c3ccccc23)cc1,inactive: -7.74%,–
COc1c(C=O)cc2c3c1CCCN3CCC2,–,"inconclusive: 35.5 µM [inhibitor, partial curve, poor fit]"
O=C(Nc1ccc(N2CCCC2)c(Cl)c1)c1ccccc1[N+](=O)[O-],inactive: -12.6%,–
COc1c(Cl)cnn(-c2ccc(C)cc2)c1=O,inactive: -6.45%,–
COC(=O)c1ccc(NC(=O)CSc2n[nH]c(CC(C)C)n2)cc1,inactive: 8.2%,–
Cc1ccc(NC(=O)Cn2c(=O)c(CNc3ccccc3)cc3cc4c(cc32)OCCO4)cc1,–,"inconclusive: 31.6 µM [inhibitor, single point]"
O=C(O)CN1C(=O)/C(=C2\C(=O)N(Cc3ccccc3Cl)c3ccccc32)SC1=S,inactive: -7.82%,–
O=C(CCc1ccccc1)c1c(O)cc(O)cc1O,–,"inconclusive: 39.8 µM [inhibitor, partial curve, poor fit]"
COc1ccc2c(ccc[n+]2[O-])c1,–,"inconclusive: 35.5 µM [inhibitor, single point]"
Cc1cccc(OC(=O)c2cc(-c3ccc(Cl)cc3)on2)c1C,–,"inconclusive: 100 µM [inhibitor, partial curve, poor fit]"
O=C(COC(=O)c1ccc([N+](=O)[O-])o1)NCc1ccccc1,–,"inconclusive: 28.2 µM [inhibitor, single point]"
Cc1ccc2c(c1)c1ncnc(N3CCN(c4ccccc4)CC3)c1n2C,–,"inconclusive: 12.6 µM [inhibitor, partial curve]"
O=C(CSc1nnc(NC(=O)c2ccccc2F)s1)Nc1ccccc1F,–,"inconclusive: 4.47 µM [inhibitor, partial curve]"
COc1cccc(CNC(=O)c2nn(C)c3c2CS(=O)(=O)c2ccccc2-3)c1,–,"inconclusive: 7.08 µM [inhibitor, partial curve]"
CN(c1cccc(NC(=O)COc2ccccc2)c1)S(C)(=O)=O,–,"inconclusive: 5.62 µM [inhibitor, partial curve, poor fit]"

# A draw from above in order of formula weight, descending:
Compound,"activity change, negative = inhibition",Potency
CCCc1nccn1S(=O)(=O)c1cc(Br)ccc1OC,inactive: -14.2%,–
Cc1ccc2c(c1)c1ncnc(N3CCN(c4ccccc4)CC3)c1n2C,–,"inconclusive: 12.6 µM [inhibitor, partial curve]"
O=C(COC(=O)c1ccc([N+](=O)[O-])o1)NCc1ccccc1,–,"inconclusive: 28.2 µM [inhibitor, single point]"

# The list goes on:

Compound,"activity change, negative = inhibition",Potency
COc1ccc(-c2nnn(CC(=O)N(CCO)C(C(=O)NC3CCCC3)c3ccncc3)n2)cc1 (centres undefined),–,"inconclusive: 31.6 µM [inhibitor, single point]"
COc1cccc(-c2cc(C(=O)Nc3nc4ccccc4s3)c3ccccc3n2)c1,–,"inconclusive: 1.78 µM [inhibitor, partial curve, poor fit]"
Cc1nn(CC(=O)Nc2cccc(C(F)(F)F)c2)c(=O)c2nn(-c3ccccc3)c(C)c12,–,"inconclusive: 35.5 µM [inhibitor, partial curve, poor fit]"
COCCCNC(=S)N1CCN(c2nc(-c3ccc(Cl)cc3)cs2)CC1,–,"inconclusive: 25.1 µM [inhibitor, partial curve]"
O=S(=O)(Nc1ccc(-n2cccc2)cc1)c1ccc(Cl)c(Cl)c1,inactive: -10.7%,–
CCCCCCCCOc1ccc(C2OC34CCCCC3C(C#N)(C#N)C2(C#N)C(=N)O4)cc1 (centres undefined),–,"inconclusive: 39.8 µM [inhibitor, partial curve]"
N#CCSc1nc2sc3c(c2c(=O)n1C1CCCCC1)CCCC3,–,"inconclusive: 31.6 µM [inhibitor, single point]"
CSc1cccc(CN2CCC(CO)(Cc3cccc(C(F)(F)F)c3)CC2)c1,inactive: -9.48%,–
COc1ccc(CCNC(=O)COc2ccc(S(=O)(=O)NCC(C)C)cc2Cl)cc1OC,–,"inconclusive: 17.8 µM [inhibitor, partial curve]"
Cc1ccc2ncc(C(=O)NCCc3ccc(S(N)(=O)=O)cc3)c(=O)n2c1,–,"inconclusive: 10 µM [inhibitor, partial curve, poor fit]"
O=S(=O)(/N=C(\Sc1ccccc1)c1ccccc1)c1ccc(Cl)cc1,inactive: -12.2%,–
Cc1cc(/C=C2/C(=O)N(C)C(=S)N2C)ccc1N1CCCC1,–,"inconclusive: 56.2 µM [inhibitor, partial curve, poor fit]"
Cc1ccc(OCC(=O)Sc2ccc(C)cc2)cc1,inactive: -15.6%,–
CCOC(=O)C1(C(F)(F)F)N=C(C(F)(F)F)Nc2ccccc21 (centres undefined),–,"inconclusive: 1 µM [inhibitor, full curve, poor fit]"
O=C(CCNC(=O)c1ccc(Cl)cc1)Nc1ccncc1,–,"inconclusive: 0.282 µM [inhibitor, full curve, poor fit]"
CCC(=O)Nc1ccc(C)cc1-c1nc2ccccc2n(CC(=O)Nc2ccccc2Cl)c1=O,–,"inconclusive: 0.0398 µM [inhibitor, full curve, poor fit]"
CCOc1ccccc1Nc1sc(C(=O)c2ccccc2)c(N)c1C(=O)NCCc1ccccc1,–,"inconclusive: 7.94 µM [inhibitor, partial curve]"
COc1ccc(/C=C2\CCC(C3CCCC3)C2=O)c(OC)c1 (centres undefined),inactive: -17.4%,–
[O-][n+]1c2c(c3c4non(O)c4ccc31)CCCC2,–,"inconclusive: 25.1 µM [inhibitor, single point]"
C=CCOc1c(Cl)cc(CNc2ccc(N(C)C)cc2)cc1OC,–,"inconclusive: 15.8 µM [inhibitor, single point]"
Nc1nnnn1/N=C/c1cc(Cl)ccc1O,inactive: -24.4%,–
Oc1c(Br)cc(Br)cc1/C=N/c1nccs1,–,"inconclusive: 44.7 µM [inhibitor, partial curve, poor fit]"
